Results are given in words; binding and its absence hold for the method and conditions named. Binding seen in cells or lysates may run through a third protein. Some results given as binding are weak or reduced against the parent protein; the word gives no strength.

Protein sequences, listed by entry. Tags and fused reporters are not part of them.
UniProt O95071: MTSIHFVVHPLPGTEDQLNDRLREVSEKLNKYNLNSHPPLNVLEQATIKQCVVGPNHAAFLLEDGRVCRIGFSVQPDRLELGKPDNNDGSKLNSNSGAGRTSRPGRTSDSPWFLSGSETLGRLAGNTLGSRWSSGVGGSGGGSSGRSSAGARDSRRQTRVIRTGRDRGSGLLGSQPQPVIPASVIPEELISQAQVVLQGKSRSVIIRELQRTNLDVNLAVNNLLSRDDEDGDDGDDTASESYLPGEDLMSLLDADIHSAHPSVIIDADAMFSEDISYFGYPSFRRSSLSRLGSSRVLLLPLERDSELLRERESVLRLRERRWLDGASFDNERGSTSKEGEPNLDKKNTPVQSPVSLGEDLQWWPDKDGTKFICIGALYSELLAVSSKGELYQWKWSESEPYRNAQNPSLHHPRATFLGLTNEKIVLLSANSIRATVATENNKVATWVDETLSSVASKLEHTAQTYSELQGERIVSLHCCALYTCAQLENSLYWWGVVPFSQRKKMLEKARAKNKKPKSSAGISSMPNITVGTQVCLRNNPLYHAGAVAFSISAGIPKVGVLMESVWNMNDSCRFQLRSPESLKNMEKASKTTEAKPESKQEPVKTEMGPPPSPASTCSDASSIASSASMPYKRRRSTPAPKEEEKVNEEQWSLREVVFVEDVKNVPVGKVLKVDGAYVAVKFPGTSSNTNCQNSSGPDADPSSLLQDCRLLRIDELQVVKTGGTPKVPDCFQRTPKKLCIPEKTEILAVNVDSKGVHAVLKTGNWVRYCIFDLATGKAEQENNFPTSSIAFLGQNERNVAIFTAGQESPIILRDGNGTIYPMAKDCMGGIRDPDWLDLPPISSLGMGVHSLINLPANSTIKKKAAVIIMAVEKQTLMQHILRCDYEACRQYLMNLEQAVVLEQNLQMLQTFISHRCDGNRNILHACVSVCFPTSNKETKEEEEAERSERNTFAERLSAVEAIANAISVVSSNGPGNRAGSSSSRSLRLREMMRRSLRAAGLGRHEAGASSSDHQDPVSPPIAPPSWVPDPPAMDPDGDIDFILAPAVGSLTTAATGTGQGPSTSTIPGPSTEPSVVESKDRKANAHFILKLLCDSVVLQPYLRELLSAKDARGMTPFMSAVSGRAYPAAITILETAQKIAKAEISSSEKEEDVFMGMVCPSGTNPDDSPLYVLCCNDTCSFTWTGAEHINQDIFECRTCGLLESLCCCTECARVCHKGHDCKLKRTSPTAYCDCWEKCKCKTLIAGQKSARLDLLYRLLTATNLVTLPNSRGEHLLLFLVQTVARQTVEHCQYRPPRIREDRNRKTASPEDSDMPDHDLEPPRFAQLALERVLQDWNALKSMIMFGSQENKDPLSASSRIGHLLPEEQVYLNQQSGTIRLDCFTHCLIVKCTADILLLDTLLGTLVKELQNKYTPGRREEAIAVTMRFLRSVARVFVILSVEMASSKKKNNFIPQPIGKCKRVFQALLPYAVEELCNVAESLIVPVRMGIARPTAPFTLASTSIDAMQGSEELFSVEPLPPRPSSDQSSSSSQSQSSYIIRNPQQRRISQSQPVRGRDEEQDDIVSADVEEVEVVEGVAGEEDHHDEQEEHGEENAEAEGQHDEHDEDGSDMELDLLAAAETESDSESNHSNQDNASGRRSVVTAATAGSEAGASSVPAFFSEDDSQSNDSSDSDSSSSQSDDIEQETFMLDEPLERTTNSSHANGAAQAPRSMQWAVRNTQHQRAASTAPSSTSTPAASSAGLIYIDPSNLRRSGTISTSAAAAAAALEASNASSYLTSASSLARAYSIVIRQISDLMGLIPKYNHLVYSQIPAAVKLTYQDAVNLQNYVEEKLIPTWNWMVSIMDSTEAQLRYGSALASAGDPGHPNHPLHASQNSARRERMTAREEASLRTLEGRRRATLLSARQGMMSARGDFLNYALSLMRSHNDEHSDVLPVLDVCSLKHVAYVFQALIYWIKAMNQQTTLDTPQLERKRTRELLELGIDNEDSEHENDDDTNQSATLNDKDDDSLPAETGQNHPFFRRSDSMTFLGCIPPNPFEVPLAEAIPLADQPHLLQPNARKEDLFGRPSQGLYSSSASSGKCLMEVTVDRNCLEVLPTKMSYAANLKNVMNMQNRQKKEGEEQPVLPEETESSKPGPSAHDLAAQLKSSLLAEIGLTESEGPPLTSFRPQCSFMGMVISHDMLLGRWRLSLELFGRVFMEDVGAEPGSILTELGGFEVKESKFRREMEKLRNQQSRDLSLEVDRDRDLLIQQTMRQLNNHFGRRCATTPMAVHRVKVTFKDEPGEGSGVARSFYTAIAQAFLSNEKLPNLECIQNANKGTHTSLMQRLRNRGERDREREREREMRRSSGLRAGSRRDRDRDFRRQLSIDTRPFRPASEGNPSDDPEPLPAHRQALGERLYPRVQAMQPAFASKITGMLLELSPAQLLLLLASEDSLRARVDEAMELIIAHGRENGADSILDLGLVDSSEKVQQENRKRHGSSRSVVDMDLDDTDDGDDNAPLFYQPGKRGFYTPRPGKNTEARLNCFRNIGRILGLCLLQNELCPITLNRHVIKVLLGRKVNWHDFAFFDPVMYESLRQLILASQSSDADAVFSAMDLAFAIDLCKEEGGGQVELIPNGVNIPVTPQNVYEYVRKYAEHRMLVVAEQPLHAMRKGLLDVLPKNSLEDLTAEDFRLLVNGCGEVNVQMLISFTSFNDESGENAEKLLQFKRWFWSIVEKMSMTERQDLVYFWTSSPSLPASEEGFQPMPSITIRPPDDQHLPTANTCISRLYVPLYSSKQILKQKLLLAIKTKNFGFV

The record followed here is article PMC11792579.

The assay concerns the target T1, N-acetyltransferase 10 (NAT10), endogenous (human (endogenous in SW620)) (UniProt Q9H0A0).
T1 sequence: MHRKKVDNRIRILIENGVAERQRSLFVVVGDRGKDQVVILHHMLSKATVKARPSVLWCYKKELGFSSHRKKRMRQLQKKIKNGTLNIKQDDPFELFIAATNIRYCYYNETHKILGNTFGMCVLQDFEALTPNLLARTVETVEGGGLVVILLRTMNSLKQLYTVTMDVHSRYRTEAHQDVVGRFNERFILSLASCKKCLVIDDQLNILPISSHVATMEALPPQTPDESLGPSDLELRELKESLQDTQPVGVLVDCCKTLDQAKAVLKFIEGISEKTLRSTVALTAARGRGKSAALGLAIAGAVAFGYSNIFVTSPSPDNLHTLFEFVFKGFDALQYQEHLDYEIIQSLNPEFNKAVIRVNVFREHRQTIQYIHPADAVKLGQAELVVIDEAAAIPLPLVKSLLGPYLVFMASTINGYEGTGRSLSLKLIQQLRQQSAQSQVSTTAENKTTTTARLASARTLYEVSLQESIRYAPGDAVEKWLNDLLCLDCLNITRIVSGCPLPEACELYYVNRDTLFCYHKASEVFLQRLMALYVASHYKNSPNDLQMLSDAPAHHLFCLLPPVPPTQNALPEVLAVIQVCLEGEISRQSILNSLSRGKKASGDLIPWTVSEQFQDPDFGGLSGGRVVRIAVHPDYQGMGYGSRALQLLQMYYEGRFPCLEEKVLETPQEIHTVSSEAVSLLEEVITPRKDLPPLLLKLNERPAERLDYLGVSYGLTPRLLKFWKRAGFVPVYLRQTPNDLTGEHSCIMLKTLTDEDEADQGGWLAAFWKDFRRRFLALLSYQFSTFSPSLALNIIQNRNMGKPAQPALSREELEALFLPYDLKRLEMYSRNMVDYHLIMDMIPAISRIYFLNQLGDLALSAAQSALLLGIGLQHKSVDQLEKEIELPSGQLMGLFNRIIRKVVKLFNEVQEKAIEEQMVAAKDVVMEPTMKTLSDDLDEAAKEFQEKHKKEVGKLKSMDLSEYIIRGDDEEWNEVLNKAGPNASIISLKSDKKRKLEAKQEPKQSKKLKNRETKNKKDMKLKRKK
Kind of assay: co-IP; endogenous proteins, cell lysate, Abcam Immunoprecipitation Kit, Protein A/G Sepharose beads, overnight at 4 °C; cells with or without 5-Fu.

Take “Ubiquitin protein ligase E3 component n-recognin 5 (UBR5), endogenous (from UniProt O95071 1-2799)”: the binding entry was “binds”.
